# The other results are listed elsewhere or left out. Shown are side measurements of this screen, not its main read-out; they come without a call. Compounds called inactive in the main read-out are mostly missing here. Potencies come from curve fits of mixed quality, noted in brackets.
# Test: qHTS Assay for Lipid Storage Modulators in Drosophila S3 Cells;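 as to cell number change: cells counted by Cell Tracker Red CMTPX staining in the red channel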
# Details: BODIPY lipid droplet fluorescence, 18-24 h; for cell number change: measured here: cell count max response, cells fed with added oleic acid
# Summary of the method: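 Laser-scanning cytometry quantifies lipid droplet accumulation (500–530 nm total intensity; droplet/cell object ratio) in oleic acid-fed (400 uM added) Drosophila S3 cells treated with a concentration series. 20 uM Triacsin C defined 100% inhibition.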
# [1] = measured here: lipid fluorescence (Fed channel) AC50, cells fed with added oleic acid
# [2] = measured here: cell number channel AC50, cells fed with added oleic acid
Structure (SMILES),cell number change [%],AC50 [1],AC50 [2]
COc1ccccc1CNC(=O)Cn1nc(C(F)(F)F)cc1C,-13.1,–,–
COc1cccc(CN2CC(C(=O)NCCc3ccc(C)o3)CCC2=O)c1 (stereo not given),-13.9,"2.91 µM [rising, full curve]",–
CSc1nc2sc3c(c2c(=O)[nH]1)CCCC3,12.1,–,–
Cc1[nH]n(C(N)=S)c(=O)c1N=Nc1cccc(Cl)c1,-47,"11.6 µM [falling, partial curve]","14.6 µM [falling, partial curve]"
Cc1ccc(C)c(OCc2nc3ccccc3[nH]2)c1,19.9,–,–
CC(C)N1C(=O)S/C(=C/c2ccccc2OCc2ccc(C(=O)O)cc2)C1=O,6.49,–,–
COc1ccc(C(=O)NC2CCCc3c2cnn3-c2cc(F)cc(F)c2)c(OC)n1 (stereo not given),-38.8,"6.51 µM [falling, partial curve, poor fit]","3.26 µM [falling, partial curve, poor fit]"
COc1ccccc1N1CCN(C(=O)c2cc(=O)c3cc(C)ccc3o2)CC1,16.7,"0.461 µM [rising, partial curve]",–
O=C(Nc1ncccc1O)c1ccc(S(=O)(=O)N2CCCCCC2)cc1,–,–,"0.291 µM [rising, full curve, poor fit]"
COc1ccc(NC(=S)N(Cc2ccc(C(=O)O)cc2)Cc2ccc(OC)c(OC)c2)cc1,20.7,"0.00517 µM [falling, full curve, poor fit]","0.0058 µM [falling, full curve, poor fit]"
CCc1sc(C(=O)NCc2ccco2)cc1C,–,"23.1 µM [rising, partial curve]",–
Cc1c(Cc2ccccc2)c(=O)oc2c(C)c(OCC(=O)NCc3ccccn3)ccc12,3.88,"0.0731 µM [falling, full curve, poor fit]",–
COCCn1c(-c2ccco2)csc1=Nc1cccnc1,31.2,–,"0.461 µM [rising, full curve]"
Cc1ccc(NC(=O)COC(=O)c2cccnc2Cl)cc1S(=O)(=O)N1CCCCC1,-0.704,"0.82 µM [falling, single point]",–
NC(=O)c1sc2nccc(Nc3ccccc3)c2c1N,-4.52,–,–
CCNC(=S)N/N=C/c1ccc(-c2ccccc2)o1,14.6,"29.1 µM [rising, single point]",–
CCN1/C(=C/C=C/c2oc3ccc4ccccc4c3[n+]2CC)Oc2ccc3ccccc3c21,-46.7,"0.58 µM [falling, full curve]","20.6 µM [falling, partial curve, poor fit]"
O=C(NC(=S)N1CCCc2ccccc21)c1ccc([N+](=O)[O-])cc1,-112,–,"29.1 µM [falling, single point]"
Cc1ccc(NS(=O)(=O)c2cccc(C(=O)NN3CCOCC3)c2)cc1,1.91,"3.26 µM [rising, single point]",–
Cc1ccc(-c2nn[nH]n2)o1,0.561,–,–
CC(=O)c1cccc(NC(=O)CN(c2ccccc2F)S(C)(=O)=O)c1,72.9,"7.31 µM [falling, single point]","16.4 µM [rising, partial curve]"

# Four neighbouring records already listed:
Structure (SMILES),cell number change [%],AC50 [1],AC50 [2]
CC(C)N1C(=O)S/C(=C/c2ccccc2OCc2ccc(C(=O)O)cc2)C1=O,6.49,–,–
COc1ccc(C(=O)NC2CCCc3c2cnn3-c2cc(F)cc(F)c2)c(OC)n1 (stereo not given),-38.8,"6.51 µM [falling, partial curve, poor fit]","3.26 µM [falling, partial curve, poor fit]"
COc1ccccc1N1CCN(C(=O)c2cc(=O)c3cc(C)ccc3o2)CC1,16.7,"0.461 µM [rising, partial curve]",–
O=C(Nc1ncccc1O)c1ccc(S(=O)(=O)N2CCCCCC2)cc1,–,–,"0.291 µM [rising, full curve, poor fit]"

# Next part.

Structure (SMILES),cell number change [%],AC50 [1],AC50 [2]
O=C(COc1ccc(F)cc1)N1CCCc2ccccc21,0.895,"3.66 µM [rising, single point]",–
O=C(CCCc1c[nH]c2ccccc12)Nc1ccc2ccccc2c1,-11.5,"18.4 µM [falling, single point]",–
O=C(NCCc1csc(-c2cccnc2)n1)c1c(F)cccc1F,16.8,"2.91 µM [rising, partial curve, poor fit]",–
CCn1nc(NC(=O)c2ccccn2)c2cc3cc(C)ccc3nc21,3.3,"0.13 µM [rising, full curve]",–
Cc1ccc(S(=O)(=O)N2CCOCC2)cc1NC(=O)COC(=O)COc1cccc2c1OC(C)(C)C2,-0.56,"1.64 µM [falling, partial curve]","2.06 µM [falling, partial curve]"
CCCCOc1ccc(C(=O)Nc2ccc(C)cc2[N+](=O)[O-])cc1,20.5,"3.66 µM [rising, full curve]",–
COc1ccccc1CNC(=O)CSc1nnc2c(n1)[nH]c1ccc(F)cc12,0.435,"0.58 µM [falling, single point]",–
Nc1ccc(C23CC4CC(CC(CO)(C4)C2)C3)cc1,4.82,"6.51 µM [falling, single point]",–
O=C(NC1CCCCCC1)C1CCN(S(=O)(=O)c2cnc[nH]2)CC1,0.86,"0.58 µM [rising, single point]",–
Cc1ccc(CNC(=O)COC(=O)C2CCN(S(=O)(=O)c3cccs3)CC2)cc1,77.1,"23.1 µM [rising, single point]","13 µM [rising, single point]"
O=C(OCc1nnc(-c2ccccc2)o1)C1CCN(S(=O)(=O)c2cccs2)CC1,-14,"29.1 µM [rising, single point]",–
Cc1nc(N)sc1C(=O)N/N=C/c1c[nH]c2ccccc12,–,–,"6.51 µM [rising, single point]"
Cc1ccc(NC(=O)CN(C)C(=O)Cn2ncc(Cl)c(Cl)c2=O)cc1,-30.4,"5.17 µM [falling, partial curve]","1.16 µM [falling, full curve, poor fit]"
COc1cc(/C=N\NC(=O)c2cccc(Cl)c2)ccc1Oc1ccc([N+](=O)[O-])cn1,-8.65,–,–
c1cn2c(NC3CCCC3)c(-c3ccc(N4CCOCC4)cc3)nc2cn1,–,"0.00517 µM [falling, full curve, poor fit]",–
Cc1cc(C)c(NC(=O)CN(C)C(=O)c2ccc(OCc3ccccc3)cc2)c(C)c1,3.99,"3.66 µM [falling, single point]",–
Cc1ccc(F)cc1NC(=O)CN1CCN(c2ccccn2)CC1,60.5,"0.231 µM [rising, full curve, poor fit]","0.206 µM [rising, full curve]"
Cc1oc(=O)c(NC(=O)c2ccccc2)cc1C(N)=O,-19.4,–,–
COC(=O)c1ccc(C2C(C(=O)c3cc4ccccc4o3)=C(O)C(=O)N2c2cc(C)on2)cc1 (stereo not given),-4.72,"18.4 µM [rising, partial curve]",–
CCN(CC)S(=O)(=O)c1cccc(C(=O)OCC(=O)c2ccc3c(c2)OCCO3)c1,–,"29.1 µM [rising, partial curve, poor fit]","3.26 µM [falling, partial curve]"
O=c1oc2c3c4c(cc2c(C(F)(F)F)c1CCN1CCOCC1)CCCN4CCC3,–,"5.8 µM [rising, single point]",–

Structure (SMILES),cell number change [%],AC50 [1],AC50 [2]
CCOC(=O)c1ccc(NC(C)=O)c([N+](=O)[O-])c1,38.2,"4.61 µM [rising, full curve]","3.66 µM [rising, partial curve]"
CS(=O)(=O)N(Cc1ccc(Cl)cc1)c1ccc(C(=O)N2CCN(c3ccccc3)CC2)cc1,-11.7,"0.058 µM [falling, full curve, poor fit]","0.259 µM [falling, partial curve, poor fit]"
Cc1cccc(NC(=O)COC(=O)c2cc3ccccc3oc2=O)c1,13.5,–,"0.82 µM [falling, single point]"
CC(C)CC1C(C#N)=C(N)Oc2n[nH]c(-c3cccs3)c21 (stereo not given),–,–,"2.91 µM [rising, single point]"
CC(NC(=O)c1ccc(C(F)(F)F)cc1)C(c1ccccc1)N1CCOCC1 (stereo not given),1.59,–,–
CCc1nnc(NC(=O)CSc2ncc(-c3ccccc3)[nH]2)s1,56.3,–,"10.3 µM [rising, partial curve]"
C/C(CCC1CC(C)(C)OC1=O)=N\NC(N)=S (stereo not given),7.04,–,–
CCOC(=O)Nc1sc2c(c1C(N)=O)CCC(C)C2 (stereo not given),-2.24,–,–
O=C(NNC(=O)C1CCN(S(=O)(=O)c2ccccc2)CC1)c1ccccc1O,14,"4.47 µM [rising, single point]",–
COc1cc(C(=O)OCC(=O)NCc2ccc(F)cc2)cc(NC(=O)c2cccs2)c1OC,-48.1,"18.4 µM [falling, single point]","23.1 µM [falling, partial curve]"
CC1CCCN(CCOc2ccc(Br)cc2)C1 (stereo not given),1.18,"4.61 µM [rising, full curve, poor fit]",–
N#C/C(=C1/CCCCCN1)c1nnc2n1CCCCC2,1.51,"29.1 µM [falling, partial curve]",–
CC(C)N(C(=O)CN1C(=O)NC2(CCCCCC2)C1=O)C(C)C,–,"6.51 µM [falling, single point]",–
CCN(CC(=O)Nc1c(F)cccc1F)C(=O)c1ccc(=O)[nH]c1,21.1,–,–
O=c1c(Cc2c(F)cccc2Cl)c(O)ccn1CCCn1ccnc1,-0.214,–,–
CCOC(=O)c1ccc(N=c2sc(C(=O)OC)cc(=O)n2-c2ccc(C(=O)OCC)cc2)cc1,-18,"0.92 µM [falling, full curve, poor fit]",–
COc1ccc(NS(=O)(=O)c2ccc(C)c(NC(=O)CN3C(=O)NC4(CCCC4)C3=O)c2)cc1,0.333,"6.51 µM [falling, single point]",–
CC(C(=O)N1CCCc2ccccc21)N1CCN(S(=O)(=O)c2ccccc2F)CC1 (stereo not given),31.3,"6.51 µM [rising, single point]","9.2 µM [rising, single point]"
Cc1ccc(/C=N/NC(=O)c2cc(C)oc2C)cc1,28.7,"2.59 µM [rising, partial curve]",–
